Consider 1 substance from patent US20090130692A1.

By UniProt entry, the sequences of proteins in these tests, tags left out. Where a name states a change or a piece, a line headed by the entry shows the natural chain unless it says otherwise.
UniProt P20231: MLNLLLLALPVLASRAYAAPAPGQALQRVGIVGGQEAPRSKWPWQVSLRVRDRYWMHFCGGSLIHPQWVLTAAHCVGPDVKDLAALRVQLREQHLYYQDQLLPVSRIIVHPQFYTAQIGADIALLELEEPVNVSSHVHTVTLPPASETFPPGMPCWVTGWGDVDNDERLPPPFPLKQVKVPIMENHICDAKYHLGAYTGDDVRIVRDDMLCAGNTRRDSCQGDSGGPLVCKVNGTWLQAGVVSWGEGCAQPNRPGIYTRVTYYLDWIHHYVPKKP

These are yes or no findings as the source states them, for the method shown.

The target of this assay is human tryptase β-III (Human) (UniProt P20231). The experiment in a line: enzyme inhibition, Kiapp determination.

“MCoEeTI-2R-10 (from UniProt P00648 48-157)”: the binding result is recorded as “no binding (tested: at 0.5 µM protein concentration)”.
